In US20190194279A1, “Wound Healing Peptide” (James Cook University, priority 2016, published 2019):
Some results were stated once for a whole list of compounds, not compound by compound.

System: skin-deep wound on the crown of the head
Format: in vivo, BALB/c mice
Settings: mouse, 56 pmoles (Regranex 71 pmoles) topical daily
Description: These studies were conducted with the approval of the James Cook University Small Animal Ethics Committee, applications A1806 and A2204, as described^6. Briefly, 4-5 female BALB/c mice per group were anesthetized (intraperitoneal xylazine 16 mg/kg; ketamine 80 mg/kg), after which a skin-deep wound on the crown of the head was inflicted using a 5 mm biopsy punch (Zivic instruments). […] Wounds were photographed daily and after blinding treatment groups the area of the lesion was measured with ImageJ software and plotted as percent of wound closure from original wound images. […] Each mouse wounding study was conducted at least twice to provide reproducibility.
Day 4 wound healing were assessed using peptides as described herein (Ov-GRN-1, Ov-GRN1-35, Ov-GRN8-38, Ov-GRN12-34, Ov-GRN12-35_3s, GRN24-3ala, GRN24-P2A, GRN24-P4A, and GRN27sps).

Row | Substance | wound healing at day 4 relative to PBS vehicle
1 | Ov-GRN1-35: truncated Ov-GRN-1 peptide, residues 1-35, four cysteines, two disulfide bonds, Cys IV and Cys VI replaced with alanine (MDTLQPIRSPSCPDPVYTCRPGQTCARGLHGYGCA) | 37-41 % over PBS
2 | Ov-GRN12-34: minimal Ov-GRN-1 sequence that contains the four cysteine residues, two disulfide bonds (CPDPVYTCRPGQTCARGLHGYGC) | 37-41 % over PBS
